Laboratory results reported in doi:10.1101/2022.07.27.501734.
Results are given in words; binding and its absence hold for the method and conditions named. Binding seen in cells or lysates may run through a third protein. Some entries that bind do so weakly or less than the wild type.

The chains behind the UniProt entries cited, without tags or fusion partners. Residues count along the entry.
UniProt Q8K2B3, residues 43-664: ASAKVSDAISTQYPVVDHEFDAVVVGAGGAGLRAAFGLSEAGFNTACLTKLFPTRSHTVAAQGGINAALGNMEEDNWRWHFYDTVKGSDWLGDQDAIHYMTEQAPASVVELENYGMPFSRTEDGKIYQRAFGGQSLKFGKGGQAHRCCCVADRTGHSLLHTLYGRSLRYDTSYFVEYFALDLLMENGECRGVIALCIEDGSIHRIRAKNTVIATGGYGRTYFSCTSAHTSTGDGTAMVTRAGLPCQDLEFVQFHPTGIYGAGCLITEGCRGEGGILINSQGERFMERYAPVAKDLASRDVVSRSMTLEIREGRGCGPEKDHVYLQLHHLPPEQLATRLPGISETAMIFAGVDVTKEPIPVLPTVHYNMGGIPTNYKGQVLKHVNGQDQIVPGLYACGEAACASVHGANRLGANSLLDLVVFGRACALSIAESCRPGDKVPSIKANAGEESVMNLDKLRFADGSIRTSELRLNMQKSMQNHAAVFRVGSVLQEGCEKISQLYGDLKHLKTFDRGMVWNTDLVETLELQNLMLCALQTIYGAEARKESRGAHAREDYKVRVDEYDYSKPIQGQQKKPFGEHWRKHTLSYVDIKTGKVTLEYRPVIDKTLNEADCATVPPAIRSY
UniProt Q9D6J5, residues 29-186: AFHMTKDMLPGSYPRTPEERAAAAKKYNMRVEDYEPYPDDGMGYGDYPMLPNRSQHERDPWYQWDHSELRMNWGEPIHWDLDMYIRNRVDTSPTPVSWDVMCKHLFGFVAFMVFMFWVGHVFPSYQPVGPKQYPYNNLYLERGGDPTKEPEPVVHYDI
UniProt Q03265, residues 44-553: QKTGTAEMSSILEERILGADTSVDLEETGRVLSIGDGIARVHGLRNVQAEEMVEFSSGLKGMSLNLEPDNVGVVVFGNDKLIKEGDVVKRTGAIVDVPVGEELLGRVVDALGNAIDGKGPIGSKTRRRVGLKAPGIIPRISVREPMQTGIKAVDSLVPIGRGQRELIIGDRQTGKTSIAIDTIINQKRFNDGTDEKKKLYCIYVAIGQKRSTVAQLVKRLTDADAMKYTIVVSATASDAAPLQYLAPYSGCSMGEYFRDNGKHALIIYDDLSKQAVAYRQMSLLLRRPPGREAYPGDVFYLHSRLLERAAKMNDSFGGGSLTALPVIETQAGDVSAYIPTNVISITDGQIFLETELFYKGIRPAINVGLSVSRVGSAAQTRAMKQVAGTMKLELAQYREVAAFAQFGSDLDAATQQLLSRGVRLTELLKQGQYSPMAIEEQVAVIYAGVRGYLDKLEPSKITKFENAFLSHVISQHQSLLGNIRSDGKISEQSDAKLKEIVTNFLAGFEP

B1: succinate dehydrogenase B (SDHB) (protein, UniProt Q9CQA3 31-282)
chain: AQTAAAAAPRIKKFAIYRWDPDKTGDKPRMQTYEVDLNKCGPMVLDALIKIKNEVDSTLTFRRSCREGICGSCAMNINGGNTLACTRRIDTDLSKVSKIYPLPHMYVIKDLVPDLSNFYAQYKSIEPYLKKKDESQEGKQQYLQSIEDREKLDGLYECILCACCSTSCPSYWWNGDKYLGPAVLMQAYRWMIDSRDDFTEERLAKLQDPFSVYRCHTIMNCTQTCPKGLNPGKAIAEIKKMMATYKEKRALA
B2: UQCRC2 (protein, UniProt Q9DB77 15-453)
chain: SLKVAPKVKTSAAPGGVPLQPQDLEFTKLPNGLVIASLENYAPLSRIGLFVKAGSRYEDSNNLGTSHLLRLASSLTTKGASSFKITRGIEAVGGKLSVTATRENMAYTVEGIRSDIEILMEFLLNVTTAPEFRRWEVAALRSQLKIDKAVAFQNSQTRIIENLHDVAYKNALANPLYCPDYRMGKITSEELHYFVQNHFTSARMALVGLGVSHSVLKQVAEQFLNMRGGLGLAGAKAKYRGGEIREQNGDNLVHAAIVAESAAIGNAEANAFSVLQHLLGAGPHIKRGNNTTSLLSQSVAKGSHQPFDVSAFNASYSDSGLFGIYTISQAAAAGEVINAAYNQVKAVAQGNLSSADVQAAKNKLKAGYLMSVETSEGFLSEIGSQALAAGSYMPPSTVLQQIDSVADADVVKAAKKFVSGKKSMAASGNLGHTPFLDEL

The molecules below were run against SDHA (mouse (endogenous in iBMDM)) (UniProt Q8K2B3) (assay: co-IP).

Row | Molecule | binding
1 | NDUFB8 (from UniProt Q9D6J5 29-186) | no binding
2 | ATPA5 (from UniProt Q03265 44-553) | no binding
3 | B1 | binds
4 | B2 | no binding
